Reference: patent publication US20070022485
For at least one entry, the source does not settle the construct or the ends of the probe. Where a protein sequence is shown, tags need not be part of it.

Test system: T1, SB transposase N123 (N-terminal 123 aa DNA-binding domain) (Sleeping Beauty (synthetic, salmonid-derived))
T1 sequence: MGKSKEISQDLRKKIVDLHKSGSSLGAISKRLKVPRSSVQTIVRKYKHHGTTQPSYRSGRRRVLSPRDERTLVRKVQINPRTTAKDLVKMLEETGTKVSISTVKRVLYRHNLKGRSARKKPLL
Assay: EMSA
Settings: 25 C, purified recombinant protein, protein details: C-terminal His6 (pET21d, E. coli), label: 32P 5'

Sequence	binding result (5mC at CpG (SssI), no effect of methylation on binding or competition)	binding result (complexes C1 and C2 correspond to one and two N123 per IR/DR)
CCTTGAAATACATCCACAGGTACACCTCCAATTGACTCAAATGATGTCAATTAGTCTATCAGAAGCTTCTAAAGCCATGACATCATTTTCTGGAATTTTCCAAGCTGTTTAAAGGCACAGTCAACTTAGTGTATGTAAACTTCTGACCCACTGGAATTGTGATACAGTGAATTATAAGTGAAATAATCTGTCTGTAAACAATTGTTGGAAAAATGACTTGTGTCATGCACAAAGTAGATGTCCTAACTGACTTGCCAAAACTATTGTTTGTTAACAAGAAATTTGTGGAGTAGTTGAAAAACGAGTTTTAATGACTCCAACTTAAGTGTATGTAAACTTCCGACTTCAACTGTA (double strand) [IR/DR-L fragment about 300 bp, CpG methylated]	binds	–
CCTTGAAATACATCCACAGGTACACCTCCAATTGACTCAAATGATGTCAATTAGTCTATCAGAAGCTTCTAAAGCCATGACATCATTTTCTGGAATTTTCCAAGCTGTTTAAAGGCACAGTCAACTTAGTGTATGTAAACTTCTGACCCACTGGAATTGTGATACAGTGAATTATAAGTGAAATAATCTGTCTGTAAACAATTGTTGGAAAAATGACTTGTGTCATGCACAAAGTAGATGTCCTAACTGACTTGCCAAAACTATTGTTTGTTAACAAGAAATTTGTGGAGTAGTTGAAAAACGAGTTTTAATGACTCCAACTTAAGTGTATGTAAACTTCCGACTTCAACTGTA (double strand) [IR/DR-L fragment about 300 bp, unmethylated]	–	binds
